# Source: PubChem BioAssay AID504834 (National Center for Advancing Translational Sciences (NCATS), 2011)
# Among all 320,000 compounds or so, about 22,000 (6.9%) were called active. Inconclusive results, whose numbers are uncertain, are shown with a selection of clear calls. The call rests on the fitted dose curve; in most records, active means well fitted inhibition curve with a large enough effect; inconclusive means small, poorly fitted or top-dose-only effect, or another doubt; inactive means no such curve, though single readings can be large or run the other way. Potencies of inconclusive entries are doubtful fits and often do not repeat.
# Assay: Primary qHTS for delayed death inhibitors of the malarial parasite plastid, 96 hour incubation
# Conditions: P. falciparum luciferase reporter growth; series mostly up to 28.7 µM; activity change, negative = inhibition: at the top concentration
# Method in brief: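 Two-generation exposure (96 h) targets delayed-death phenotype. Reporter parasites carrying integrated firefly luciferase, in red cells at 2% hematocrit and 0.05% parasitemia final, kept at 37 C, 5% CO2; luminescence loss indicates inhibition.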
# On the % scale 0 is the no-effect control and ±100 the full control effect; potency means the concentration at half of the fitted maximal effect.
Compound,Potency,"activity change, negative = inhibition"
O=C(c1sc2cc(F)ccc2c1Cl)N1CCN(c2cccc(Cl)c2)CC1,"inconclusive: 18.5 µM [inhibitor, single point]",
O=C(Cc1ccc(Cl)cc1)N/N=C/c1ccccc1,"inconclusive: 8.28 µM [inhibitor, partial curve, poor fit]",
Cc1ccc(S(=O)(=O)N(C)CC(=O)Oc2ccc(-c3nnco3)cc2)cc1,,inactive: 19.5%
CC(C)N(c1ccccc1)c1ccc(NC(=O)C2CCCO2)cc1 (stereo not given),"inconclusive: 18.5 µM [inhibitor, single point]",
Cc1ccc(S(=O)(=O)N2CCN(C(=S)NCc3ccc4c(c3)OCO4)CC2)cc1,"inconclusive: 1.85 µM [inhibitor, partial curve, poor fit]",
CCCN1CCN(C(=O)Cn2nc(CC)n3c(cc4sccc43)c2=O)CC1,,inactive: 0.278%
O=C(N/N=C/c1ccc(N2CCCCC2)o1)C(O)(c1ccccc1)c1ccccc1,"inconclusive: 18.5 µM [inhibitor, single point]",
COc1cc(/C=C/C(=O)O)cc(S(=O)(=O)Nc2ccc(S(=O)(=O)N3CCCCC3)cc2)c1OC,,inactive: 37.1%
COc1ccc(-c2nn(-c3ccccc3)cc2/C=N/Nc2ccccn2)cc1,"inconclusive: 2.62 µM [inhibitor, partial curve, poor fit]",
CCCCN(C)C(=O)c1nc2ccccn2c1CNCCCn1nnc2ccccc21,"inconclusive: 18.5 µM [inhibitor, partial curve, poor fit]",
CCOCCCNC(=O)c1ccc2c(=O)n(Cc3ccc(OC)cc3)c(=O)[nH]c2c1,,inactive: 56.2%
Cc1nn(-c2ccccc2)c(C)c1/C=N/NC(=O)CSc1nc2ccccc2c(=O)n1-c1ccc(Br)cc1,,inactive: 0%
COc1ccc(C(=O)Nc2cc(C(F)(F)F)ccc2Cl)cc1OC,,inactive: 19.4%
O=C(c1ccc([N+](=O)[O-])s1)N1CCN(c2ccccc2)CC1,"inconclusive: 10.4 µM [inhibitor, single point]",
Cc1nc(-c2cccc(NC(=O)COc3ccc(Cl)cc3)c2)cs1,,inactive: 0.707%
COC(=O)c1ccc(CN2CCCC(C(=O)Nc3cccc(-n4cnnn4)c3)C2)cc1 (stereo not given),"inconclusive: 3.29 µM [inhibitor, single point]",
Cc1nnc(-c2cccc(Br)c2)c2cn(-c3cccc(Br)c3)nc12,"inconclusive: 1.85 µM [inhibitor, full curve, poor fit]",
CCOC(=O)c1c(O)cc(C)cc1Nc1ccccc1,"inconclusive: 5.22 µM [inhibitor, partial curve]",
Cc1ccc(C(=O)CSc2nnc(COc3cccc(C)c3)o2)cc1,"inconclusive: 0.0037 µM [inhibitor, full curve, poor fit]",
COc1ccccc1OCCn1cc(/C=N/NC(N)=S)c2ccccc21,"inconclusive: 18.5 µM [inhibitor, single point]",
C/C(=N\O)c1ccn(S(=O)(=O)c2ccc(Cl)cc2)c1,,inactive: -23.3%
Cc1ccc(S(=O)(=O)N2CCOCC2)cc1NC(=O)CNc1ccccc1N1CCCC1=O,"inconclusive: 2.08 µM [inhibitor, partial curve, poor fit]",
Cc1ccc(C)c(NC(=O)C(C)CC2COCCO2)c1 (stereo not given),"inconclusive: 0.0738 µM [inhibitor, full curve, poor fit]",

Compound,Potency,"activity change, negative = inhibition"
Cc1ccc(-n2c(SCC(=O)N(C)C3CCS(=O)(=O)C3)nc3ccccc3c2=O)cc1 (stereo not given),"inconclusive: 0.657 µM [inhibitor, full curve]",
CCOC(=O)c1cnn(-c2nc(-c3ccccc3)cs2)c1C(F)(F)F,,inactive: 76.9%
O=C(CCCn1c(=S)[nH]c2cc3c(cc2c1=O)OCO3)NCc1ccccc1Cl,,inactive: 30.8%
O=C(NCCC1CCCCN1S(=O)(=O)c1ccc(Cl)cc1)C(=O)NCc1ccco1 (stereo not given),"inconclusive: 18.5 µM [inhibitor, single point]",
CC(=O)NC1C(Oc2ccccc2C)OC2COC(c3ccco3)OC2C1O (stereo not given),,inactive: 16.8%
CC(C)(C)c1ccccc1NC(=O)CN1C(=O)NC(Cc2ccccc2)C1=O (stereo not given),"inconclusive: 18.5 µM [inhibitor, single point]",
CCCCc1ccc(NC(=O)COc2ccc(C(=O)Nc3ccccc3OC)cc2)cc1,"inconclusive: 7.38 µM [inhibitor, single point]",
CCCN(CC1CC1)C(=O)CCc1nnc(CCc2c[nH]c3ccccc23)o1,"inconclusive: 18.5 µM [inhibitor, single point]",
O=C1CCCN1c1cc(Cl)ccc1Cl,"inconclusive: 4.15 µM [inhibitor, partial curve, poor fit]",
COc1ccc(C(=O)OC(C)C(=O)NC2CCCC2)cc1S(=O)(=O)N1CCOCC1 (stereo not given),,inactive: -6.55%
CN(Cc1c(F)cccc1Cl)S(=O)(=O)c1cccs1,,inactive: 43%
O=C(Nc1nccs1)c1cccc(NC(=O)C2CC2)c1,active: 13.1 µM,
O=C(c1cccc([N+](=O)[O-])c1)N(c1ccccn1)c1ccccn1,,inactive: 46.7%
COc1ccc(CN(C)CC(O)COc2ccc(C(=O)c3ccccc3)cc2)c(OC)c1OC (stereo not given),"inconclusive: 11.7 µM [inhibitor, single point]",
Clc1ccc(N=c2ssnc2Cl)cc1,"inconclusive: 4.15 µM [inhibitor, single point]",
COC(=O)CCC(=O)OC1(C)C(=O)C=C2C=C(C3CC3)N(Cc3ccco3)C=C2C1=O (stereo not given),"inconclusive: 13.1 µM [inhibitor, single point]",
CC1(C)C(c2ccco2)=[N+]([O-])C2(CCCCC2=O)N1O (stereo not given),,inactive: -5.35%
CCc1nc(SCC(=O)Nc2ccc3c(c2)OCCO3)c2oc3ccccc3c2n1,"inconclusive: 13.1 µM [inhibitor, single point]",
CCCc1cc(=O)[nH]c(SCC(=O)N2N=C(c3ccc(Cl)cc3)CC2c2ccco2)n1 (stereo not given),,inactive: 36%
CCCN(CC(=O)Nc1ccc(C(N)=O)cc1)CC(=O)Nc1ccc(Cl)cc1Cl,,inactive: -23.2%
O=C(Nc1ncccn1)c1cc(-c2ccc(F)cc2)nc2ccccc12,"inconclusive: 18.5 µM [inhibitor, single point]",
Cc1ccccc1/C=N/n1c(-c2cc(-c3ccccc3)n[nH]2)n[nH]c1=S,"inconclusive: 3.29 µM [inhibitor, full curve, poor fit]",

# By substructure: the entries above with a nitro group on carbon.
Compound,Potency,"activity change, negative = inhibition"
O=C(c1ccc([N+](=O)[O-])s1)N1CCN(c2ccccc2)CC1,"inconclusive: 10.4 µM [inhibitor, single point]",
O=C(c1cccc([N+](=O)[O-])c1)N(c1ccccn1)c1ccccn1,,inactive: 46.7%
